For two molecules, binding results are on record in article PMC10947329.

Results are given in words; binding and its absence hold for the method and conditions named. Binding seen in cells or lysates may run through a third protein. Binding can be weak; no strength is given.

For experiment [1], the target named is Cysteine‐rich secretory protein 2 (pig (endogenous in boar spermatozoa)). As to the kind of experiment: co-IP; anti-CRISP2 cross-linked to protein A/G magnetic beads, lysates of non-capacitated (NC), capacitated (CAP) and ionophore-induced (II) boar sperm, overnight at 4°C, three washes; eluates by western blot with anti-acrosin, anti-ACRBP, anti-CRISP2.
Experiment [2] has the same target. As to the kind of experiment: proximity ligation; direct in situ PLA (oligonucleotide-conjugated primary antibodies, Duolink Probemaker) with anti-ACRBP and anti-CRISP2; NC, CAP and II boar sperm fixed in 4% PFA, permeabilised in cold acetone for 10 min.

B1: proacrosin (∼53 kDa) (protein, UniProt P08001 17-415)
chain: RDNATCDGPCGLRFRQKLESGMRVVGGMSAEPGAWPWMVSLQIFMYHNNRRYHTCGGILLNSHWVLTAAHCFKNKKKVTDWRLIFGANEVVWGSNKPVKPPLQERFVEEIIIHEKYVSGLEINDIALIKITPPVPCGPFIGPGCLPQFKAGPPRAPQTCWVTGWGYLKEKGPRTSPTLQEARVALIDLELCNSTRWYNGRIRSTNVCAGYPRGKIDTCQGDSGGPLMCRDRAENTFVVVGITSWGVGCARAKRPGVYTSTWPYLNWIASKIGSNALQMVQLGTPPRPSTPAPPVRPPSVQTPVRPPWYFQRPPGPSQQPGSRPRPPAPPPAPPPPPPPPPPPPPPPPPPPQQVSAKPPQALSFAKRLQQLIEALKGTAFSSGRSYYETETTDLQELPAS
For B1, the binding entry in experiment [1] is “binds”.

B2: Acrosin binding protein, 60 kDa form (ACRBP) (protein, UniProt Q29016 26-539)
chain: QDANSASTPGSPLSPTEYERFFALLTPTWKAETTCRLRATHGCRNPTLVQLDQYENHGLVPDGAVCSDLPYASWFESFCQFTQYRCSNHVYYAKRVRCSQPVSILSPNSLKEVDTSSEVPITTMTSPVSSHITATGRQVFQPWPERLNNNVEELLQSSLSLGGQEQGQEHKQEHKQEQGQEHKQDEGQEQEEQEEEQEEEGKQEEGQGTEESLEAMSGLQADSEPKFQSEFVSSNPFSFTPRVREVESTPMMMENIQELIRSAQEMDEMGDVYEEENIWRAQSPGSLLQLPHVDALLVLCYSIVENTCVITPTAKAWQYLEDETLGFGKSVCDSLGRRHLAACSLCDFCSLKLEQCHSETNLQRQQCDNSHKTPFISPLLASQSMSIGTQIGTLKSGRFYGLDLYGGLRMDFWCARLATKGCEDNRVASWLQTEFLSFQDGDFPTKICDTEYVQYPNYCAFKSQQCMMRNRDRKVSRMRCLQNETYTVLTQAKSEDLVLRWSQEFSTLTLGQAG
As for B2, the binding entry in experiment [2] and in experiment [1] was “binds” in each case.
